Test results as given in US20210171576A1, “METHODS FOR TREATING CANCER WITH ACYLDEPSIPEPTIDE ANALOGS” (priority 2018, published 2021).

B1: HSPD1 (protein, UniProt P10809 27-573, looked up)
60 kDa heat shock protein, …: AKDVKFGADARALMLQGVDLLADAVAVTMGPKGRTVIIEQSWGSPKVTKDGVTVAKSIDLKDKYKNIGAKLVQDVANNTNEEAGDGTTTATVLARSIAKEGFEKISKGANPVEIRRGVMLAVDAVIAELKKQSKPVTTPEEIAQVATISANGDKEIGNIISDAMKKVGRKGVITVKDGKTLNDELEIIEGMKFDRGYISPYFINTSKGQKCEFQDAYVLLSEKKISSIQSIVPALEIANAHRKPLVIIAEDVDGEALSTLVLNRLKVGLQVVAVKAPGFGDNRKNQLKDMAIATGGAVFGEEGLTLNLEDVQPHDLGKVGEVIVTKDDAMLLKGKGDKAQIEKRIQEIIEQLDVTTSEYEKEKLNERLAKLSDGVAVLKVGGTSDVEVNEKKDRVTDALNATRAAVEEGIVLGGGCALLRCIPALDSLTPANEDQKIGIEIIKRTLKIPAMTIAKNAGVEGSLIVEKIMQSSSEVGYDAMAGDFVNMVEKGIIDPTKVVRTALLDAAGVASLLTTAEVVVTEIPKEEKDPGMGAMGGMGGGMGGGMF
B2: HIBADH (protein, UniProt P31937 37-336, looked up)
3-hydroxyisobutyrate …: ASKTPVGFIGLGNMGNPMAKNLMKHGYPLIIYDVFPDACKEFQDAGEQVVSSPADVAEKADRIITMLPTSINAIEAYSGANGILKKVKKGSLLIDSSTIDPAVSKELAKEVEKMGAVFMDAPVSGGVGAARSGNLTFMVGGVEDEFAAAQELLGCMGSNVVYCGAVGTGQAAKICNNMLLAISMIGTAEAMNLGIRLGLDPKLLAKILNMSSGRCWSSDTYNPVPGVMDGVPSANNYQGGFGTTLMAKDLGLAQDSATSTKSPILLGSLAHQIYRMMCAKGYSKKDFSSVFQFLREEETF

System: mitochondrial proteins of HEK293 T-REx cells
Assay: Mitochondrial proteome profiling for WT and CLPP^−/− (fold change CLPP^−/−/WT)
Parameters: species or system human
Conditions: fold change of mitochondrial protein detected in CLPP knockout compared to WT HEK293 T-REx cells; MaxQuant total peptide ion intensity

Row | Molecule | Avg. fold change (CLPP KO/WT)
1 | B1 | 1.21
2 | B2 | 1.04
